In PMC4674680, “An in cellulo-derived structure of PAK4 in complex with its inhibitor Inka1” (Nature Communications, 2015):
Results are given in words; binding and its absence hold for the method and conditions named. Binding seen in cells or lysates may run through a third protein. Some results given as binding are weak or reduced against the parent protein; the word gives no strength. For some assays here: Where a sequence is shown, tags or fusion partners need not be part of it.

Amino acid sequences for entries named in this document (tags omitted).
UniProt Q9NTI7: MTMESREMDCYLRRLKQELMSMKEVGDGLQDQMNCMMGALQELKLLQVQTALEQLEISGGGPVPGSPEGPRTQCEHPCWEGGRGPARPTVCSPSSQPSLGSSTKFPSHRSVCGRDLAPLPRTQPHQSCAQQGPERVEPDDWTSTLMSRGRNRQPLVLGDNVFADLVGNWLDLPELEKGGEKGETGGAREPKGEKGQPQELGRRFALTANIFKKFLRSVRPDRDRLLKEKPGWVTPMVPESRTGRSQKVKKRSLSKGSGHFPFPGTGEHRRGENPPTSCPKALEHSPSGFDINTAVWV

Experiments:
[1] = molecular target: FLAG-tagged wild-type PAK4 (human) (UniProt O96013); test: co-IP; told only in the discussion; constructs and conditions for Inka2 not told
[2] = molecular target: T1, FLAG-tagged PAK4* (RR48/49AE) (human) (UniProt O96013); test: as above
T1 sequence: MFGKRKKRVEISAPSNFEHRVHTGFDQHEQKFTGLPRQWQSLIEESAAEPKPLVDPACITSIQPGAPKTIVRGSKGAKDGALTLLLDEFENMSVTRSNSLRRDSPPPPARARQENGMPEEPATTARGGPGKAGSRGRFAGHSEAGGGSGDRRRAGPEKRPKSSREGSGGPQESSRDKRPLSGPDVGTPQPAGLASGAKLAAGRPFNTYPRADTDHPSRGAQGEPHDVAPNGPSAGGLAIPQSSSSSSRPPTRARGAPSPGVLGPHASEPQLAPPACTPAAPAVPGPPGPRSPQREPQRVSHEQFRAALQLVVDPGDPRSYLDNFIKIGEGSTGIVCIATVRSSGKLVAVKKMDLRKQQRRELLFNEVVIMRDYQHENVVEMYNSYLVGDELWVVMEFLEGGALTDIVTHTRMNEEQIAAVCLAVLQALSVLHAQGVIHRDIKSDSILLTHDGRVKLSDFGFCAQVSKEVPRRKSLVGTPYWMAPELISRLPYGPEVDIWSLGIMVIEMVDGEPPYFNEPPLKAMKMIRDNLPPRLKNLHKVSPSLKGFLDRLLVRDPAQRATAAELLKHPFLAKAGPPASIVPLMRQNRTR

binding [1]: binds | binding [2]: binds
Substance: Inka2 (from UniProt Q9NTI7 1-297)
